Reference: PMC12493207, “Annexin A2 interferes with complement regulation within the glomerulus” (The Journal of Biological Chemistry, 2025)
No constants are given. Whether binding was seen depends on the method and setting. Binding can be weak; no strength is given.

Sequences of proteins named here, by UniProt entry; tags and fusion partners are left off. A change or cut given only in a name is not applied to a line headed by its entry.
UniProt P06909: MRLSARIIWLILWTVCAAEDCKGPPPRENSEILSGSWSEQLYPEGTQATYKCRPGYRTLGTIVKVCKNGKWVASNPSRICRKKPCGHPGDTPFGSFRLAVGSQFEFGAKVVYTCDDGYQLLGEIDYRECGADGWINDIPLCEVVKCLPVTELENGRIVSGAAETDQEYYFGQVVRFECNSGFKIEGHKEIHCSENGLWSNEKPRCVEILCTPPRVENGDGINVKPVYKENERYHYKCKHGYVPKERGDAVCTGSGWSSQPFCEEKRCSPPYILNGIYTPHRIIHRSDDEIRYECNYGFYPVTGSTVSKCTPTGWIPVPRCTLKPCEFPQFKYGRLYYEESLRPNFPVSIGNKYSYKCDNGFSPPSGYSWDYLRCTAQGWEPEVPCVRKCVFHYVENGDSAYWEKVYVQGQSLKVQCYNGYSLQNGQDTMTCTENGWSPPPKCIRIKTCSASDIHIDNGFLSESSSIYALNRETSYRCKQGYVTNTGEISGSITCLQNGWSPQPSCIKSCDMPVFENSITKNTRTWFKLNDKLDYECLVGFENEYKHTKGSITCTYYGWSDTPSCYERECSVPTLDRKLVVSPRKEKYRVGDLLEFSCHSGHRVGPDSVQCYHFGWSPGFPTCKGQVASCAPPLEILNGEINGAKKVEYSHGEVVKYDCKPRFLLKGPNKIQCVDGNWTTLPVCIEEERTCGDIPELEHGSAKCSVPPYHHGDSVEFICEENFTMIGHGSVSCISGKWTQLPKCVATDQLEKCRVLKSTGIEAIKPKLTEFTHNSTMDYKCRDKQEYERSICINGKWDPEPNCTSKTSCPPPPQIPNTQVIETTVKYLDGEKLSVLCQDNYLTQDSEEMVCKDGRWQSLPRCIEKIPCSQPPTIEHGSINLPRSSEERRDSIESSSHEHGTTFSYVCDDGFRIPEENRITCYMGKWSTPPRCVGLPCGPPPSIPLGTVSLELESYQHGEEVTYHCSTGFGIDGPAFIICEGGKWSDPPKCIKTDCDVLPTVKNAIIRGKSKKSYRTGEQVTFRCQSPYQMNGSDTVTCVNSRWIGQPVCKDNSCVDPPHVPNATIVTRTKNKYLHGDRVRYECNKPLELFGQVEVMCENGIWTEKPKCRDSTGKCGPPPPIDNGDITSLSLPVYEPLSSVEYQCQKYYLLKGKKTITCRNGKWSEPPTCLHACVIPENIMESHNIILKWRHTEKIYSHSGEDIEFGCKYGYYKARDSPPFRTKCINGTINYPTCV
UniProt P08603: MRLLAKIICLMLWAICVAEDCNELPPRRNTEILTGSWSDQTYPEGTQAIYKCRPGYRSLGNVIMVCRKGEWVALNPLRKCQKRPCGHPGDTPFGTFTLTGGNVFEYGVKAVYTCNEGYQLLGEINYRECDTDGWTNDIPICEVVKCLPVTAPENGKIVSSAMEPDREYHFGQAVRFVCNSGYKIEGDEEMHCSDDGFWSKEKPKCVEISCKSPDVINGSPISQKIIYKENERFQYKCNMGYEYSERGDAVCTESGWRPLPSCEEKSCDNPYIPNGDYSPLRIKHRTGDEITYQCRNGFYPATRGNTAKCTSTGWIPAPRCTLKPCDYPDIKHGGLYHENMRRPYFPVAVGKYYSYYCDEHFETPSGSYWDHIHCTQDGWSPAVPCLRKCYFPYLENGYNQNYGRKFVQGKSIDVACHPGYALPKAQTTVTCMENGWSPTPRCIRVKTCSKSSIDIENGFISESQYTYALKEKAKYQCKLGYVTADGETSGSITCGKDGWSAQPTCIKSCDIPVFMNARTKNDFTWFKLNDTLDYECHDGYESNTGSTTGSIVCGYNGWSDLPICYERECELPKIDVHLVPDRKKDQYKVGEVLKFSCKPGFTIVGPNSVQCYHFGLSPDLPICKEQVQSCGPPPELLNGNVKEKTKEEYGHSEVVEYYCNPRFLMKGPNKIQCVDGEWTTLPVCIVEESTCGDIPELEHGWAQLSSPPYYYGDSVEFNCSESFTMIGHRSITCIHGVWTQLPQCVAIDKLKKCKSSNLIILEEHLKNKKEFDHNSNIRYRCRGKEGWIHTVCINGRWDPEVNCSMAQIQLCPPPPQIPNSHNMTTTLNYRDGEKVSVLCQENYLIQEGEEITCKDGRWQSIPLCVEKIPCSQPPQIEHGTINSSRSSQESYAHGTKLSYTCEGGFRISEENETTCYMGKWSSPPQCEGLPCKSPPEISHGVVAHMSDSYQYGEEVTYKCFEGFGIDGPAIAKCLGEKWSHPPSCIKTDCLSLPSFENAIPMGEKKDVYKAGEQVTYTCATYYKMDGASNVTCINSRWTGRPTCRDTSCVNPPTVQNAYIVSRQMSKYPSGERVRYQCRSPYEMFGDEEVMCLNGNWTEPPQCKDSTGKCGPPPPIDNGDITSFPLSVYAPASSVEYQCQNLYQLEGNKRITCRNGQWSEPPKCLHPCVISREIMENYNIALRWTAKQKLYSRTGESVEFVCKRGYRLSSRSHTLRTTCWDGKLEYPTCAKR

How the values were obtained:
[1] = target: Factor H fragment SCRs 19-20 (murine) (UniProt P06909); test: ELISA; Figure 1C: binding of rA2 to recombinant fragments of Factor H; both purified
[2] = target: Factor H fragment SCRs 6-8 (UniProt P08603); test: as above

B1: recombinant annexin A2 (natural protein, mouse, UniProt P07356 1-339, looked up)
chain: MSTVHEILCKLSLEGDHSTPPSAYGSVKPYTNFDAERDALNIETAVKTKGVDEVTIVNILTNRSNVQRQDIAFAYQRRTKKELPSALKSALSGHLETVILGLLKTPAQYDASELKASMKGLGTDEDSLIEIICSRTNQELQEINRVYKEMYKTDLEKDIISDTSGDFRKLMVALAKGRRAEDGSVIDYELIDQDARELYDAGVKRKGTDVPKWISIMTERSVCHLQKVFERYKSYSPYDMLESIKKEVKGDLENAFLNLVQCIQNKPLYFADRLYDSMKGKGTRDKVLIRIMVSRSEVDMLKIRSEFKRKYGKSLYYYIQQDTKGDYQKALLYLCGGDD
notes: annexin A2, mouse; cDNA reverse transcribed from total mRNA of a C57BL/6 mouse kidney; also called rA2; AnxA2; source: CHO cells, transfected, purified from the supernatant (HiTrap His column)
[1]
  binding: binds
[2]
  binding: binds
